Results are given in words; binding and its absence hold for the method and conditions named. For some assays here: Binding seen in cells or lysates may run through a third protein. Some entries that bind do so weakly or less than the wild type.
Assays:
[1] = target: PARP1, recombinant, full length (printed as GFP-PARP1 in the results) (UniProt P09874); assay: HDX-MS
[2] = target: PARP1, recombinant, full length (printed as GFP-PARP1 in the results) (UniProt P09874); assay: pull-down
PARP1-GFP [3] = target: PARP1-GFP (UniProt P09874); assay: co-IP
PARP1-GFP [4] = target: PARP1-GFP (UniProt P09874); assay: proximity ligation

Amino acid sequences for entries named in this document (tags omitted). A change or cut given only in a name is not applied to a line headed by its entry.
UniProt P09874: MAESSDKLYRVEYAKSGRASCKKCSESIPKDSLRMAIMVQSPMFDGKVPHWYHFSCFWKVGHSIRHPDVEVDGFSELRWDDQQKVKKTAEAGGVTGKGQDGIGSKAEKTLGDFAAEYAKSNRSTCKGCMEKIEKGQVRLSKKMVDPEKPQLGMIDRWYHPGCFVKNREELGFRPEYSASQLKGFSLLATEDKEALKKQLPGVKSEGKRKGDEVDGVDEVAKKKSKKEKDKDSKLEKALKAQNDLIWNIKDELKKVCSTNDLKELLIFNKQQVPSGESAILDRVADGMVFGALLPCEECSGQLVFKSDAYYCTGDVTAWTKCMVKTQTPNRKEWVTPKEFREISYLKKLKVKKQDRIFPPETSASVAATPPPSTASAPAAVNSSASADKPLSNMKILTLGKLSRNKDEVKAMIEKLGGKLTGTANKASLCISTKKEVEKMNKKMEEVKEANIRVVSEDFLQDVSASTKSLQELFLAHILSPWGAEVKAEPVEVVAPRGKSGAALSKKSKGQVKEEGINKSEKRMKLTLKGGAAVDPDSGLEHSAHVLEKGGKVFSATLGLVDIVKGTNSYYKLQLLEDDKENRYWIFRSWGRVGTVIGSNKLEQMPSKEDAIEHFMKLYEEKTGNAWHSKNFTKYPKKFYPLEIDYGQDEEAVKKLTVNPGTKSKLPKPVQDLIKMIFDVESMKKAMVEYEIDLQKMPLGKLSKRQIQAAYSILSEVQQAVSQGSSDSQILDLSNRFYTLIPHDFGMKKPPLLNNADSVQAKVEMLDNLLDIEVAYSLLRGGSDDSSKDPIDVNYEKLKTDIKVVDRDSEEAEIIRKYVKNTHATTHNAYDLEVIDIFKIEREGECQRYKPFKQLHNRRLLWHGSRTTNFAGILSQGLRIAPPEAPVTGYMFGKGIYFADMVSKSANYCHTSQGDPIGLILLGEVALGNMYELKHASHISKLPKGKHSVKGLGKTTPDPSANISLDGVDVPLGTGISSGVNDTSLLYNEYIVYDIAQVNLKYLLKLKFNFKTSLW
UniProt Q9Y6I9: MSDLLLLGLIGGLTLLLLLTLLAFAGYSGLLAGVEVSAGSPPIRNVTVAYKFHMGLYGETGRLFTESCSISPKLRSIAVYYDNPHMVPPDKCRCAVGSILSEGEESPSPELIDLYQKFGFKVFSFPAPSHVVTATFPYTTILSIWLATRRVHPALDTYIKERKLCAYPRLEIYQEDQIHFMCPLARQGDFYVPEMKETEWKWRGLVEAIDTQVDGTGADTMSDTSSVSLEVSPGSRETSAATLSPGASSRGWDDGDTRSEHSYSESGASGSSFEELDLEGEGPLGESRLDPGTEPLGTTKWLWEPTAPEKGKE

Which results are given for “TEX264 (34-313), recombinant (from UniProt Q9Y6I9 34-313) (domain or fragment)”?
binding [1]: binds; binding [2]: binds

How did the binding (PARP1-GFP [3]) turn out when “TEX264 (endogenous) (from UniProt Q9Y6I9 1-313)” was run?
Its binding is “binds”.

How did the binding [2] turn out when “TEX264 fragment containing only the GyrI-like domain (34-185), recombinant (from UniProt Q9Y6I9 34-185) (domain or fragment)” was run?
Its binding is “no binding (tested: 2.5 µM)”.

For “p97/VCP (endogenous) (from UniProt P55072 1-806)”, which binding (PARP1-GFP [3]) is on record?
The binding was “binds”.

With “TEX264-272 (variant lacking the C-terminal region beyond S272) (from UniProt Q9Y6I9 1-272) (domain or fragment)” as the substance, how does the binding (PARP1-GFP [3]) read?
The binding was “no binding”.

For “TEX264^WT-V5 (from UniProt Q9Y6I9 1-313)”, which binding (PARP1-GFP [4]) is on record?
Its binding is “binds”.

What about the binding (PARP1-GFP [3]) of the same substance?
Its binding is “binds”.

From paper doi:10.64898/2025.12.11.692727
